## Primary screen of a compound library

Amino acid sequences for entries named in this document (tags omitted).
UniProt E9BF75, entry or part of it: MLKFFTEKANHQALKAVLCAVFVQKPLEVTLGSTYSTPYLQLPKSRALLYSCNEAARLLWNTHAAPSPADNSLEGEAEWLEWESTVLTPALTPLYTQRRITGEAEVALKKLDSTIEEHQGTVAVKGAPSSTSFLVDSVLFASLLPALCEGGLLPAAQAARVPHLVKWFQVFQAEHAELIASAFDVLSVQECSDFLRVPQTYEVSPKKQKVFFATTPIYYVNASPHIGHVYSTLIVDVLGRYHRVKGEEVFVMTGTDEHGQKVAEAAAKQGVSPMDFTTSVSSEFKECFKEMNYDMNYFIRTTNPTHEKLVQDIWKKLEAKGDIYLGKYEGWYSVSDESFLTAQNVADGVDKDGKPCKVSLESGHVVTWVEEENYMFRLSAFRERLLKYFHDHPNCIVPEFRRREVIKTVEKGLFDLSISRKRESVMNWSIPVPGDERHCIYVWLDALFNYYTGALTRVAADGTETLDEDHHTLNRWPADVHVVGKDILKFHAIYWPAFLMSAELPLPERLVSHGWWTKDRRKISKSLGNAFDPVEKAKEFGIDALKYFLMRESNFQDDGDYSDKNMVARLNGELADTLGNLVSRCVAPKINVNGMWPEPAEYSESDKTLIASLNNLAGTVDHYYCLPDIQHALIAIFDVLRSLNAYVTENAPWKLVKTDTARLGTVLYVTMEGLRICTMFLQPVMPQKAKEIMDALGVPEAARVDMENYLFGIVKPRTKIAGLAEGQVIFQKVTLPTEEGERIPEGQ

Measurements from “University of Dundee, Small-Polar-MMV Screening Library” (2021), ChEMBL document CHEMBL3988442.

All values are in %.
The record does not define 0% and 100%; most values in the screen are far below 50% and negative numbers occur (in some assays of this library far below -100).
The compounds are a random part of those screened.

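Methionyl-tRNA synthetase (putative), Leishmania donovani (UniProt E9BF75). Primary screen of methionyl-tRNA synthetase; the read-out is not stated. The test concentration is not given. Values are per cent inhibition. Size under these conditions: about 68,000 compounds, about 24 of them at 50% or above in at least one test.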

SMILES,inhibition
CCOc1ncccc1NC(=O)c1ccc(C(C)=O)s1,11.61
N#Cc1cccnc1N1CCC(C2CCCCCN2C(N)=O)CC1 (centres undefined),10.93
Nc1nc2c(c(NC(=O)Nc3ccc(Cl)c(Cl)c3)n1)CCCC2,7.194
Cn1cc(-c2nnn3c2COC(CNCc2ccncc2)C3)cn1 (centres undefined),9.375
CC(C)NC(=O)Nc1nc2c(s1)CN(C(=O)NCc1cccs1)CC2,18.94
CNC(=O)COC1COC2(CCN(c3ncccn3)CC2)C1 (centres undefined),7.958
O=C(NC1(c2nccs2)CCCC1)c1[nH]nc(C2CC2)c1Cl,11.5
Cc1cccc(C2(CNC(=O)CCNS(C)(=O)=O)CCCC2)c1,13.62
CC(=O)NCCC1CCCCN1C(=O)c1cccc(CCC(C)(C)O)c1 (centres undefined),21.49
Cc1cnn(CCNCCCOc2ccccc2)c1,22.05
CC(C)c1ccc(OCC(=O)N(C)C)cc1,-2.208
Cc1ccc(C)c(-c2[nH]c3ccccc3c2C(=O)O)c1,-2.286
O=C(CN1CCCS1(=O)=O)Nc1ccc(OC2CCCC2)c(Cl)c1,10.99
COc1cc(-c2nc3c([nH]2)CCCNC3=O)ccc1O,20.92
Cc1cc(C)c2nc(C)c(C(=O)N3CCC(N4CCCC4)CC3)cc2c1,22.43
CCN(CC)S(=O)(=O)c1cc2c3c(c1)c(C)cc(=O)n3CCC2,13.35
O=C(Cc1cccs1)N1CCn2cc(Cn3cccn3)nc2C1,9.95
O=C(CCN1C(=O)CCC1=O)Nc1cnn(-c2ccccc2Cl)c1,9.206
OC(CN1CCN(Cc2cccnc2)CC1)c1cccs1 (centres undefined),14.39
CCn1ncc(CN2CCN(C(=O)Cn3cc(Br)c(C)n3)CC2)c1C,-1.075
CCc1c(C)sc(NC(=O)CN2CCOCC2)c1C(=O)OC,10.14
Cn1nc(C(=O)NCc2cccc(Cn3ccnc3)c2)ccc1=O,13.66
CSC(C)(C)CNC(=O)NCc1cccc(-n2cncn2)c1,6.406
O=C(NCCc1cccs1)[C@]12COC[C@H]1CN(C1CCOCC1)C2,19.61
COc1ccc(C(O)CN2CC(n3cc(C)cn3)C2)cc1 (centres undefined),9.971
O=C(c1ccccc1)N1CCC[C@]2(C[C@@H](OCc3ccncc3)CO2)C1,14.01
Cn1cc(CN2C[C@H]3CCC[C@@]3(COc3ccccn3)C2)cn1,15.06
COc1ccccc1C(NCc1ccc(SC)cc1)c1nccn1C (centres undefined),12.38
COCCO[C@H]1CCN(c2ccc(C)nn2)[C@H]1Cc1cccnc1,-4.396
COCCN1CC[C@H]2OCC[C@@H](C(=O)N3CCCO3)[C@H]2C1,8.357
COc1nccnc1N1CCN(Cc2ccc3c(c2)OCO3)C(=O)C1,9.14
COc1ccc(C(CO)NC(=O)Nc2cccc(C(C)=O)c2)cc1 (centres undefined),10.37
CC(C)Nc1cccc(CNC(=O)N2CCCC2)c1,10.97
O=C(NCCc1c[nH]cn1)c1ccc2c(c1)C(=O)N(C1CC1)C2=O,12.86
Cc1ccc(N2CCO[C@H]3CN(Cc4cnn(C)c4)C[C@H]32)nn1,13.13
CN(C)Cc1nnc(C(=O)N(C)Cc2ccc(F)cc2)o1,1.6
COc1cc2c(cc1CCC(=O)O)CCC2,7.143
CC(C(=O)NCCOc1cccc(Cl)c1)n1cncn1 (centres undefined),-0.4695
Cc1cccc(C2(CNC(=O)C(C)NC(N)=O)CCCC2)c1 (centres undefined),12.01
COc1ccc(F)cc1S(=O)(=O)NCC(O)c1sccc1C (centres undefined),14.39
CNC(=O)CN1CCOCC2(CCCN(Cc3ccsc3)C2)C1 (centres undefined),13.78
O=C(c1ccc[nH]1)N1CCO[C@H]2CC(COCc3ccccn3)C[C@@H]21 (some centres undefined),9.058
CCNc1ncc(C(=O)N2CCOC(CCCC(C)C)C2)cn1 (centres undefined),9.157
O=C(c1ccc2c(c1)OCO2)N1CCC[C@]2(C[C@H](OCC3CC3)CO2)C1,12.89
COc1ccc(C2=NOC(C(=O)N3CCCc4ccccc43)C2)cc1 (centres undefined),8.01
C=C(C)COc1ccccc1CNCCc1c[nH]cn1,18.37
CCC[C@@H]1CN(c2ncnc3sccc23)C[C@H]1C(=O)O,3.876
CC(=O)N1CCc2c(nc(N(C)C)nc2N(C)CC2CCCO2)C1 (centres undefined),8.303
O=C(c1ccsc1)N1CCc2c(nc(-c3ccncc3)[nH]c2=O)C1,8.602
CCc1ccc(S(=O)(=O)N2CCC3(CC(C(=O)NC)=NO3)C2)cc1 (centres undefined),3.004
O=C(NCCc1cccs1)[C@]12COC[C@H]1CN(Cc1ccccn1)C2,-5.602
O=C(O)C1CN(c2cncc(Cc3ccccc3F)n2)C1,5.28
CCc1noc(CN(CCS(C)(=O)=O)C(C)(C)C)n1,7.463
Cc1nc2cc(=O)[nH]n2c(C)c1CC(=O)Nc1ccc2ccccc2n1,39.8
Cc1nc(CN(Cc2ccccc2F)C2CCC2)no1,-21.3
CCc1nc(C2CCCN2CC(=O)Nc2nncs2)no1 (centres undefined),21.46
COC(=O)c1cc(OCC2CCC2)cc(C(=O)N[C@H]2CCCC[C@@H]2O)c1,16.27
Cn1ccc(C(=O)N2CCOC(c3ccc(C(N)=O)cn3)C2)n1 (centres undefined),18.75
COCc1ncn2c1CN(S(=O)(=O)c1cccc(OC)c1)CC2,-5.376
Cc1ccc(N2CCCC(NCc3cccc4c3OCO4)C2)nn1 (centres undefined),10.12
O=c1[nH]nc2c(N3CCCCCC3)nccn12,6.286
CC(C)c1nc(-c2cc(C(=O)O)c3ccccn23)cs1,15.68
O=C1COC2(COCCN(c3ccccn3)C2)CN1c1cccc(F)c1 (centres undefined),15.69
CCc1cnc(CN(C)C2CCN(CC3CCN(C(C)=O)CC3)C2)o1 (centres undefined),0.2481
CN(C)C(=O)N1CCC(C(=O)N2CCOC(CC3CCCCC3)C2)CC1 (centres undefined),11.29
CN1CCC(N2CCC(C(=O)N(C)C)CC2)CC1,8.791
COc1ccc(N(C)C(=O)C2CN(C)CCO2)cc1F (centres undefined),-0.2725
O=C(Cn1c(=O)oc2ccccc21)N1Cc2cnn(CCO)c2C1,7.219
Cn1ncc(N2CCOC(CCNC(=O)N3CCCCC3)C2)cc1=O (centres undefined),3.152
CC(C)c1cc(CN2CCC(N)CC2)on1,-4.054
CC(C)CN1CC(O)CN(C(=O)c2cccc(C(F)(F)F)c2)CC1=O (centres undefined),1.918
COCC(=O)N1CCC(c2csc(NC(C)=O)n2)CC1,13.55
Cc1ccccc1CN1CCN(C(C)c2nc(C3CC3)no2)CC1 (centres undefined),3.825
CCc1nnc(Nc2cccc(C3CCN(C(C)=O)CC3)n2)s1,5.178
COc1cc2nc(C)n(CC(=O)NCCN(C)C)c(=O)c2cc1OC,10.06
Cc1cccc2nc(CN3CCCC(C)C3)cc(=O)n12 (centres undefined),19.09
Cc1cc2c(=O)n3c(nc2s1)CCN(Cc1[nH]cnc1C)CC3,7.812
CCSc1ccc(C(=O)N2CC[C@](C)(O)[C@H](C)C2)s1,13.84
c1cnc(N2CCC(c3cc4cccnc4[nH]3)CC2)nc1,10.32
CCCN1CCC(N(C)C(=O)c2cc(C)nc3cc(F)ccc23)CC1,11.85
Cc1nc(N2CCOCC2)nc2c1CCN(C(=O)N1CCCC1)CC2,13.78
CC1=Nc2c(c(=O)[nH]n2C(C)C)C(c2ccccc2)S1 (centres undefined),13.69
CNC(=O)[C@H]1C[C@@H]2CN(Cc3cccnc3OC)C[C@@H]2N1C(C)C,7.958

For reference, 8 entries once more:

| SMILES | inhibition |
|---|---|
| `O=C(O)C1CN(c2cncc(Cc3ccccc3F)n2)C1` | 5.28 |
| `CCNc1ncc(C(=O)N2CCOC(CCCC(C)C)C2)cn1` (centres undefined) | 9.157 |
| `CCc1nc(C2CCCN2CC(=O)Nc2nncs2)no1` (centres undefined) | 21.46 |
| `COCC(=O)N1CCC(c2csc(NC(C)=O)n2)CC1` | 13.55 |
| `CCOc1ncccc1NC(=O)c1ccc(C(C)=O)s1` | 11.61 |
| `COc1cc2nc(C)n(CC(=O)NCCN(C)C)c(=O)c2cc1OC` | 10.06 |
| `CN1CCC(N2CCC(C(=O)N(C)C)CC2)CC1` | 8.791 |
| `Cc1ccc(C)c(-c2[nH]c3ccccc3c2C(=O)O)c1` | -2.286 |